In assay [1] the target is TbTim12-myc (T. brucei) (UniProt Q585K7). Description: co-IP; digitonin-extracted crude mitochondrial fraction solubilized in 1% digitonin, 20 mM Tris-HCl pH 7.4, 0.1 mM EDTA, 100 mM NaCl, 10% glycerol; anti-c-myc or anti-HA resin, 2 h at 4°C; eluate analysed by western blot. On the technique in general: Immunoblotting shows a protein as a band on a membrane.
Assay [2] deals with TbTim13-myc (T. brucei) (UniProt Q389I9). Described as above.
The target of assay [3] is TbTim12-myc (T. brucei) (UniProt Q585K7). Put plainly: co-IP; soluble fraction with IMS proteins (supernatant after 0.2% digitonin treatment of crude mitochondria); anti-c-myc resin, 2 h at 4°C, 20 mM Tris-HCl pH 7.4, 100 mM NaCl; eluate analysed by western blot.
Assay [4] addresses TbTim13-myc (T. brucei) (UniProt Q389I9). The assay is described as above.
In assay [5] the target is TbTim11-HA (T. brucei) (UniProt Q57Z59). Put plainly: co-IP; digitonin-extracted crude mitochondrial fraction solubilized in 1% digitonin, 20 mM Tris-HCl pH 7.4, 0.1 mM EDTA, 100 mM NaCl, 10% glycerol; anti-c-myc or anti-HA resin, 2 h at 4°C; eluate analysed by western blot.

Chains of the proteins cited; added tags and fusions are not shown. Lines headed by an entry give the natural chain unless they say otherwise; changes in a name come on top.
UniProt Q585K7: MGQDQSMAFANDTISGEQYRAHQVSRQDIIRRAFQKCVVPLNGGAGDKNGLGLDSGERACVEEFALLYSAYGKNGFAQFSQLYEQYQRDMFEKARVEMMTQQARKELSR
UniProt Q389I9: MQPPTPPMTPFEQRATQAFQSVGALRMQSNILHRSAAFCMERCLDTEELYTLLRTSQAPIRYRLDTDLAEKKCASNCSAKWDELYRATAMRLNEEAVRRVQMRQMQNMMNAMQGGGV
UniProt Q57Z59: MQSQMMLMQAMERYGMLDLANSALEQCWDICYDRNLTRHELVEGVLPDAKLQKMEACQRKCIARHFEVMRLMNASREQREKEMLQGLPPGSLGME

No constants are given. Whether binding was seen depends on the method and setting. Binding seen in cells or lysates may run through a third protein. Binding calls can cover weak binding; strength is not graded here.

Regarding TbTim11-HA (from UniProt Q57Z59), the binding result in assay [1], in assay [2], in assay [3] and in assay [4] was “binds” in each case.

In the case of “TbTim12 (endogenous) (from UniProt Q585K7)”, the binding entry in assay [2] and in assay [4] was “binds” throughout.

For the substance TbTim12-myc (from UniProt Q585K7), in assay [5], the binding entry was “binds”.

(Values after publication PMC5584982.)
